Some results were stated once for a whole list of compounds, not compound by compound. At least one compound was matched to its structure with a doubt left.
These compounds were tested on bacteria (assay: Minimum inhibitory concentration (MIC) assay, bacteria). Details: antibacterial activity; bacterial species not specified.
Type: cell-based
Description: The assays described below were used to measure the minimum inhibitory concentration (MIC) of a compound necessary to inhibit visible growth of the organism tested. These assays are adapted from NCCLS protocols M7-A4 and M27-A (NCCLS vol 17:9 and vol 17:2) as modified by Sandven, S., Clin. Micro. (1999) 37:12, p. 3856–3859. MIC values for Aspergillus species were determined using NCCLS protocol M38-P.
All compounds were dissolved in 100% DMSO to a stock concentration of 10 mM and used fresh stock compounds in powder form were kept frozen until needed and used freshly. When used for test purposes, compounds were diluted in the appropriate media depending on the organism being tested.
For yeast and aspergillus species, seven 1:2 serial dilutions of compound in appropriate media buffered with MOPS at pH 7.0 were prepared such that the final starting test compound concentrations were 44.4 μM for yeast and 50 μM aspergillus species. For bacteria, dilutions were made in growth media used for the particular bacteria being tested.
Five well-separated colonies from a 24 h Sabouraud Dextrose plate incubated at 35° C. were picked and resuspended into 2 mL of normal saline. The O.D.530 was read and the culture was adjusted to 0.5 McFarland units with normal saline. A 1:2000 dilution was made with RPMI 1640 media buffered with MOPS at pH 7.0 and 100 μL of this inoculum preparation was added to an equal volume of test compound-containing media. 25 μL of the redox indicator Alamar Blue (Biosource International) was added to each well and the plates were incubated for 48 h at 35° C. Wells having yeast growth changed color from blue to pink.
Inoculums are made in the same manner as yeast except all dilutions are made in normal saline, with a final dilution of 1:200 and an inoculum of 10 μL.

Row | Compound | MIC [µM]
1 | 1H-Indole-2,5-dicarboxylic acid 2-{[2-(N′,N″-dimethylguanidino)ethyl]amide} 5-({2-[2-(N′,N″-dimetlhylguanidino)ethylcarbamoyl]-1H-indol-5-yl}amide) [Compound 56] | ≤ 45.5
2 | NCCNC(=O)c1ccc2[nH]c(C(=O)Nc3ccc4cc(C(=O)NCCN)[nH]c4c3)cc2c1 [Compound 41, 1H-Indole-2,5-dicarboxylic acid 5-[(2-amino-ethyl)-amide] 2-{[2-(2-amino-ethylcarbamoyl)-1H-indol-6-yl]-amide}] | ≤ 45.5
3 | 1H-Indole-2,5-dicarboxylic acid 2-{[5-(3-carbamimidoyl-propylcarbamoyl)-1-(3-methyl-butyl)-1H-pyrrol-3-yl]-amide} 5-[(2-guanidino-ethyl)-amide] [Compound 103] | ≤ 45.5

From patent US7141680B2, “Aromatic compounds possessing antifungal or antibacterial activity” (Genelabs Technologies, Inc., priority 2002, dated 2006)
